# Experimental data as given in PubChem BioAssay AID1347075 (National Center for Advancing Translational Sciences (NCATS), 2019).
# About 5,500 (1.4%) of roughly 400,000 compounds were called active. Inconclusive means that the source gave no clear call. Such entries were picked first, then a sample of the others. The call rests on the fitted dose curve; in most records, active means well fitted cell-killing curve with a large enough effect; inconclusive means small, poorly fitted or top-dose-only effect, or effect the other way; inactive means flat fitted curve, though single readings scatter. A potency beside an inconclusive call is a rough fit, not a confirmed value.
# Experiment: qHTS assay for MDR1-selective chemotherapeutics: Primary screen using the parental adenocarcinoma cell KB-3-1; further: nearly all actives have a fitted effect of over 60% in size
# Settings: KB-3-1 viability, CellTiter-Glo ATP luminescence, 72 h; activity change, negative = cytotoxic: at 46.1 µM (top of the series)
# Outline: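 Screening of KB-3-1 cells (DMEM, 10% FBS, phenol-red free) ran from lowest to highest compound concentration; after 72 h at 37 °C viability was read luminescently and curves fitted.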
# On the % scale 0 is the no-effect control and ±100 the full control effect; potency means the concentration at half of the fitted maximal effect.
Structure (SMILES),Potency,"activity change, negative = cytotoxic"
Cn1c(O)c(C(=Nc2ccccc2)SCc2ccccc2Cl)c(=O)n(C)c1=O,active: 18.4 µM,–
Cc1cc2c(cc1C)NP(=S)(c1ccccc1)N2,–,inactive: 1.77%
Cc1ccc(C(=O)Nc2ccc(Cl)cc2C(=O)c2ccccc2)cc1,–,inactive: 1.86%
COc1cc(CC(C)N)c(OC)cc1I (stereo not drawn),–,inactive: -0.677%
CN1C(=O)C(=Cc2ccccc2Oc2ccc(Cl)c(F)c2)C(=O)N(C)C1=O,"inconclusive: 29.1 µM [cytotoxic, single point]",–
CC(C)(O)[C@H]1O[C@H]2CC[C@@]3(C)[C@@](O)(CC[C@H]4Cc5c([nH]c6ccccc56)[C@@]43C)C2=CC1=O,–,inactive: -0.028%
COC(=O)C1=C(c2ccc(OCc3ccccc3)cc2)C[C@@H]2CC[C@H]1N2C(=O)NCc1ccc(F)cc1,"inconclusive: 29.1 µM [cytotoxic, single point]",–
Cc1c(-c2cccc(Cl)c2)nc2ccccc2c1C(=O)N1CCC2(CC1)OCCO2,–,inactive: 21.9%
Cn1cccc1/C=C1\C(=O)NC(=O)N(Cc2ccco2)C1=O,"inconclusive: 2.31 µM [cytotoxic, partial curve, poor fit]",–
COc1ccc(C2NCc3ccccc3-n3cccc32)cc1 (stereo not drawn),–,inactive: 4.85%
Cc1cc(C=C2C(=O)NC(=S)NC2=O)c(C)n1C1CCCC1,–,inactive: -0.145%
Cc1sc2ccccc2c1CC1=NCCN1,"inconclusive: 0.58 µM [cytotoxic, partial curve, poor fit]",–
CCOP(=O)(CCP(=O)(OCC)OCC)OCC.C[CH2][Sn]([Cl])([Cl])[CH2]C,"inconclusive: 1.84 µM [cytotoxic, partial curve, poor fit]",–
CC12CCC3C(CCC4(O)CC(O)CCC34C=NO)C1(O)CCC2C1=COC(=O)C1 (stereo not drawn),active: 0.366 µM,–
Cc1nc2ccccc2c(=O)n1-c1cc([N+](=O)[O-])cc([N+](=O)[O-])c1,"inconclusive: 0.366 µM [cytotoxic, partial curve, poor fit]",–
N#Cc1cc2c(nc1SCC(=O)Nc1cccc(F)c1)C1CCN2CC1,"inconclusive: 29.1 µM [cytotoxic, single point]",–
O=c1[nH]c(O)c(/C=C2\C=NN=C2c2ccccc2)c(=O)[nH]1,–,inactive: -1.52%
CC(=O)c1c(C)n(Cc2ccccc2)c2ccc(O)cc12,"inconclusive: 18.4 µM [cytotoxic, single point]",–
O=C1CN=C(c2cc([N+](=O)[O-])ccc2Cl)c2cc([N+](=O)[O-])ccc2N1,–,inactive: -2.23%
ClC(Cl)=C(c1ccc(Cl)cc1)c1ccc(Cl)cc1,–,inactive: 0%
OC(COCc1ccc(Cl)cc1)CN1CC=C(c2ccccc2)CC1 (stereo not drawn),"inconclusive: 20.6 µM [cytotoxic, single point]",–
COc1cc2cc(C(=O)N3CC(COS(C)(=O)=O)c4ccc(O)cc43)[nH]c2c(OC)c1OC (stereo not drawn),"inconclusive: 0.13 µM [cytotoxic, full curve, poor fit]",–
COC(=O)C1=C(c2ccccc2OCc2ccccc2)C[C@@H]2CC[C@H]1N2C(=O)NCc1ccc(F)cc1,active: 20.6 µM,–
CC1=CC(=Cc2sc3ccccc3[n+]2C)C=C(C)O1,"inconclusive: 0.517 µM [cytotoxic, full curve, poor fit]",–
CCN(CC)P(c1n(C)cc[n+]1C)N(CC)CC,–,inactive: 0.77%

# Another view of two compounds above:
Structure (SMILES)	Potency	activity change, negative = cytotoxic
Cc1c(-c2cccc(Cl)c2)nc2ccccc2c1C(=O)N1CCC2(CC1)OCCO2	–	inactive: 21.9%
CC1=CC(=Cc2sc3ccccc3[n+]2C)C=C(C)O1	inconclusive: 0.517 µM [cytotoxic, full curve, poor fit]	–

# (next part)

Structure (SMILES),Potency,"activity change, negative = cytotoxic"
CCOC(=O)C1(CCc2ccccc2)CCN(Cc2ccc3c(c2)OCCO3)CC1,"inconclusive: 20.6 µM [cytotoxic, single point]",–
Cc1ccc(/C=C2/C(=O)NC(=O)N(CC3CCCO3)C2=O)s1 (stereo not drawn),–,inactive: 0.193%
CCOC(=O)c1c(C=O)c2ccccc2n1Cc1ccccc1F,"inconclusive: 29.1 µM [cytotoxic, single point]",–
COc1ccc(C(O)CNC(C)C)c(F)c1OC (stereo not drawn),–,inactive: 29.6%
OC(c1ccccc1)(c1ccc(Cl)cc1)C1CN2CCC1CC2 (stereo not drawn),"inconclusive: 29.1 µM [cytotoxic, single point]",–
COC(=O)C1=C(c2ccccc2OCc2ccccc2)C[C@@H]2CC[C@H]1N2C(=O)NCc1ccc(C(F)(F)F)cc1,"inconclusive: 29.1 µM [cytotoxic, single point]",–
O=C1CC(=O)N(c2ccccc2)C(=O)N1c1ccccc1,active: 0.291 µM,–
N/C(=N\[N+](=O)[O-])N/N=C/c1ccc(O)cc1,–,inactive: -8.01%
Cn1c(=O)n(C)c2cc(CNCCc3ccccc3)ccc21,–,inactive: -8.82%
CN(C)CC(C(=O)Cc1ccccc1)c1ccccc1 (stereo not drawn),active: 8.2 µM,–
Oc1ccc2c3c1O[C@H]1c4[nH]c5ccccc5c4C[C@@]4(O)[C@@H](C2)N(CC2CC2)CC[C@]314,–,inactive: 0%
O=Cc1cn(Cc2c(F)cccc2Cl)c2ccccc12,"inconclusive: 23.1 µM [cytotoxic, single point]",–
O=C(NN=Cc1ccc(N(CCCl)CCCl)cc1)C(=O)c1c[nH]c2ccccc12,"inconclusive: 18.4 µM [cytotoxic, single point]",–
Cc1ncoc1C(=O)NCC1=C(c2ccc(S(C)(=O)=O)cc2)C[C@@H]2CC[C@H]1N2CCOc1ccccc1,–,inactive: -9.9%
C#CC1(O)CCC2C3CCC4=CC(=O)CCC4=C3C=CC21C (stereo not drawn),active: 2.31 µM,–
C=C(C=O)C[C@@H]1C[C@H](O)C2OC3C[C@]4(C)OC5/C=C\CC6OC7C(CC=CCC6OC5CCCC4OC3CC2O1)OC1CC2OC3CC(=O)OC3C[C@@H](C)C[C@@]2(C)OC1C[C@@H]7C (stereo partly drawn),active: 4.61 µM,–
O=C1NCN(c2ccccc2)C12CCN(C(c1cc3ccccc3o1)c1nnnn1C1CCCCC1)CC2 (stereo not drawn),"inconclusive: 29.1 µM [cytotoxic, single point]",–
O=C(COc1ccc(Cl)cc1)N(c1ccc(Cl)cc1)C1CN2CCC1CC2 (stereo not drawn),"inconclusive: 29.1 µM [cytotoxic, single point]",–
Cc1sc2c(c1C)C(c1ccc(C(C)(C)C)cc1)=NCC(=O)N2CC(=O)Nc1nccs1,"inconclusive: 20.6 µM [cytotoxic, partial curve, poor fit]",–
COC(=O)C1=C(c2cccc(OCc3ccccc3)c2)C[C@@H]2CC[C@H]1N2C(=O)NCCN1CCOCC1,"inconclusive: 16.4 µM [cytotoxic, single point]",–
COC(=O)C1=C(c2ccccc2OCc2ccccc2)C[C@@H]2CC[C@H]1N2C(=O)NCc1ccc(C(C)(C)C)cc1,"inconclusive: 32.6 µM [cytotoxic, single point]",–
O=C(Cc1ccccc1)Oc1cccc(-n2cnnn2)c1,"inconclusive: 18.4 µM [rising, single point]",–
ClCCN(CCCl)c1ccc(C=Cc2ccncn2)cc1,–,inactive: -1.75%
CN1C(=O)C(=Cc2ccccc2OCc2ccc(Cl)cc2)C(=O)N(C)C1=O,–,inactive: 3.7%
Cn1cc(C=C(C#N)C#N)c2ccccc21,–,inactive: 9.21%

Structure (SMILES),Potency,"activity change, negative = cytotoxic"
O=[N+]([O-])c1ccc(CN2CC=C(c3ccccc3)CC2)cc1,–,inactive: 0.781%
Clc1ccccc1C1=NCc2nncn2-c2sc(Br)cc21,"inconclusive: 16.4 µM [rising, single point]",–
Cc1ccccc1NC(=NCCCN1CC1)Nc1ccccc1C,"inconclusive: 29.1 µM [cytotoxic, single point]",–
CC1(C)OC(c2ccccc2)=C/C(=C/C=C2C(=O)NC(=O)NC2=O)O1,"inconclusive: 16.4 µM [cytotoxic, single point]",–
Cc1nc2nc(SCC(=O)N3CCC4(CC3)OCCO4)nn2c(C)c1Cc1ccccc1,"inconclusive: 18.4 µM [cytotoxic, partial curve, poor fit]",–
CC[n+]1c(/C=C/N(C)c2ccccc2)sc2ccc(Cl)cc21,active: 14.6 µM,–
C=CCc1cc(C=C2C(=O)N(C)C(=O)N(C)C2=O)cc(OCC)c1OCc1ccccc1,"inconclusive: 23.1 µM [cytotoxic, single point]",–
CCN(CC)c1ccc(C=C2C(=O)NC(=S)NC2=O)cc1,"inconclusive: 29.1 µM [cytotoxic, single point]",–
C[N+]1(CC2COC(c3ccco3)O2)CCCCC1 (stereo not drawn),–,inactive: -0.531%
CC12CCC(O)CC1CCC1C2CCC2(C)C(C3=CC(=O)OC3)CCC12O (stereo not drawn),active: 1.16 µM,–
CCCOC(=O)c1ccc(-[n+]2c(-c3ccccc3)cc(-c3ccccc3)cc2-c2ccccc2)cc1,active: 16.4 µM,–
COc1ccccc1CCNCc1cccc(C(F)(F)F)c1,–,inactive: 10%
COc1ccc(NC(=O)c2c(C)nn(Cc3ccccc3Cl)c2Cl)cc1Cl,–,inactive: 16.4%
COC(=O)C1=C(c2ccc(Cl)c(C(F)(F)F)c2)C[C@@H]2CC[C@H]1N2C(=O)NCc1cc(C)oc1C(F)(F)F,"inconclusive: 25.9 µM [cytotoxic, single point]",–
Cc1cc(N2CCNCC2)nc2ccccc12,–,inactive: -6.28%
C=C1C(=O)OC2CC(C)C3C=CC(=O)C3(C)C(O)C12 (stereo not drawn),active: 3.26 µM,–
CCC1(OC(=O)CN)C(=O)OCc2c1cc1n(c2=O)Cc2cc3ccccc3nc2-1 (stereo not drawn),"inconclusive: 0.58 µM [cytotoxic, full curve, poor fit]",–
O=C1CN=C(c2ccccc2)c2cc(Cl)ccc2N1Cc1ccc(Cl)cc1,"inconclusive: 29.1 µM [cytotoxic, single point]",–
Cc1nc(CCl)cc(=O)[nH]1,"inconclusive: 32.6 µM [cytotoxic, single point]",–
O=c1[nH]c(=O)n(Cc2ccco2)c(O)c1/C=N/N1CCCCC1,–,inactive: 16.5%
Cn1cc(C(=O)OCC(=O)Nc2ccccc2)c2ccccc21,–,inactive: -5.95%
COC(=O)C1=C(c2ccccc2OCc2ccccc2)C[C@@H]2CC[C@H]1N2C(=O)NCCOc1ccccc1Cl,"inconclusive: 29.1 µM [cytotoxic, single point]",–
COC1=CC=C2[C@H]3Cc4ccc(OC)c5c4[C@@]2(CCN3C)[C@H]1O5,"inconclusive: 29.1 µM [cytotoxic, single point]",–

# Four successive compounds already listed, for reference:
Structure (SMILES),Potency,"activity change, negative = cytotoxic"
Cc1nc(CCl)cc(=O)[nH]1,"inconclusive: 32.6 µM [cytotoxic, single point]",–
O=c1[nH]c(=O)n(Cc2ccco2)c(O)c1/C=N/N1CCCCC1,–,inactive: 16.5%
Cn1cc(C(=O)OCC(=O)Nc2ccccc2)c2ccccc21,–,inactive: -5.95%
COC(=O)C1=C(c2ccccc2OCc2ccccc2)C[C@@H]2CC[C@H]1N2C(=O)NCCOc1ccccc1Cl,"inconclusive: 29.1 µM [cytotoxic, single point]",–
